PubChem BioAssay AID602196 – INSERM, 2012

Aim: 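Knock-downs that protect lung cancer cells from cisplatin or sensitise them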
System: human A549 lung cancer cells
Reagent: siRNA pair against human genes
Time to read-out: 48 h transfection before cisplatin; time from cisplatin to read-out not stated
Treatment: cisplatin at a dose killing half of control-siRNA cells; exact dose and duration not given
Measured: 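Shift in cisplatin death relative to control siRNA, from -50 (all cells die) to +50 (no cells die); siRNAs harmful on their own scored 0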
Scale: two-siRNA summed score (-2 to +2): higher = both siRNAs protect from cisplatin killing; -2 means both sensitise; mean protection from cisplatin (shift in death) and protection from cisplatin (shift in death), siRNA C and protection from cisplatin (shift in death), siRNA D: higher = protection from cisplatin killing
Rule for the call: 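Each siRNA scores 0 if harmful alone by LDH or WST-1, otherwise +1 if it reduces and -1 if it increases cisplatin killing; a gene is active when both siRNAs agree (sum +2 or -2)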
Calls: active = both siRNAs shift cisplatin killing the same way; inactive = no consistent shift, or siRNA harmful alone
This is a random part of about 23,000 reagents. Over the whole deposit, 455 (2%) got an active call. 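Active includes both protection and sensitisation; some change values fall well beyond the stated -50 to +50 range.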 Entries without a mark were called inactive. The numbers tell different reagents against one gene apart. No sequences are given here. Not stated in the record: the amount of reagent.

The opening 3 entries as a preview:
Target gene,reagent no.,two-siRNA summed score (-2 to +2),mean protection from cisplatin (shift in death) (%),"protection from cisplatin (shift in death), siRNA C (%)","protection from cisplatin (shift in death), siRNA D (%)"
SUCNR1,1,0,1,1.3,0.8
CYB561A3,1,0,6.8,1.5,12.1
LOC201229,1,0,5.9,2,9.7

The listing, from the start:
Target gene,reagent no.,two-siRNA summed score (-2 to +2),mean protection from cisplatin (shift in death) (%),"protection from cisplatin (shift in death), siRNA C (%)","protection from cisplatin (shift in death), siRNA D (%)"
SUCNR1,1,0,1,1.3,0.8
CYB561A3,1,0,6.8,1.5,12.1
LOC201229,1,0,5.9,2,9.7
JAK3,1,1,11.3,19.4,3.2
OR51D1,1,0,11,26.8,-4.7
LOC401079,1,0,11.6,12.5,10.7
ATF7IP2,1,0,-6.6,3.7,-16.8
PDGFA,1,0,0.4,-4.5,5.3
MANEAL,1,0,-1.5,1,-3.9
MAP3K4,1,0,8.8,12.8,4.9
ZNF428,1,0,-0.1,0.8,-0.9
TEX264,1,0,9.6,3.9,15.2
LOC132241,1,0,7.9,16,-0.3
LOC284749,1,0,16.8,25,8.6
LOC399968,1,0,5.1,2.6,7.6
OVOS2P,1,0,9.1,8.1,10
IFITM3P9,1,0,6.5,6.4,6.7
LOC390606,1,1,18,14.6,21.4
GNPNAT1,1,0,-2.7,1,-6.4
NIPSNAP3B,1,0,-5.4,11.3,-22
LOC388459,1,1,16.9,9.7,24.1
ZNF747,1,0,2.3,8.5,-3.9
LOC390566,1,0,2.2,4.4,-0.1
KIAA1345,1,0,19.9,27.3,12.4
LOC440456,1,0,17.6,8.1,27.1
LTBP4,1,1,3.5,19.5,-12.5
ETV3L,1,0,11,4,17.9
MALRD1,1,1,8.3,22.3,-5.7
XPNPEP2,1,0,-8.3,-24.3,7.7
CABP5,1,0,3.4,-4.7,11.6
PPFIA2,1,0,-6.7,-8.3,-5.1
CEP290,1,0,1.1,11.9,-9.7
POMGNT2,1,0,-7.5,-22.1,7.1
TOMM7,1,0,0.2,0.8,-0.3
RAG1,1,0,2.8,5.9,-0.4
ATP1A3,1,-1,-6.1,-8.1,-4.1
LOC440538,1,1,11.4,9.3,13.5
STK35,1,-1,-1.9,-8.6,4.7
DAZ2,1,0,4.9,-2.6,12.5
COQ6,1,-1,-15.7,-32.5,1
FAM76A,1,1,9.4,12.8,5.9
LOC442654,1,0,11.6,6.7,16.5
KCNIP1,1,-1,-17.6,-9.9,-25.3
PPAN,1,1,8.3,-0.7,17.2
CRY1,1,2 (active),19.7,19.1,20.4
SLC16A13,1,1,22.4,26.4,18.4
EIF1B,1,1,15.6,10.1,21.2
VLDLR,1,0,-2.6,-9.7,4.5
RPP38-DT,1,0,6,7,5.1
MAGED4B,1,0,6,11.7,0.3
CD48,1,-1,-9.5,2.2,-21.2
GLG1,1,-1,-12,5.7,-29.8
NGRN,1,0,-2.5,2.8,-7.9
NGRN,2,0,14.6,9.6,19.5
GNPTAB,1,0,8.2,4.2,12.3
SAGE1,1,-1,-7.3,3.8,-18.3
ARL9,1,-1,-11.3,-20.4,-2.3
